Measured values: PMC8933418
The exact form of at least one protein or probe is not confirmed. Where cells or extracts were used, other partners may take part. For some assays here: Weaker means in comparison with the reference protein, sequence or condition of that experiment. For some assays here: At least one verdict rests on a figure or table, not on a statement of the authors.

By UniProt entry, the sequences of proteins in these tests, tags left out. Where a name states a change or a piece, a line headed by the entry shows the natural chain unless it says otherwise.
UniProt P19338, whole entry: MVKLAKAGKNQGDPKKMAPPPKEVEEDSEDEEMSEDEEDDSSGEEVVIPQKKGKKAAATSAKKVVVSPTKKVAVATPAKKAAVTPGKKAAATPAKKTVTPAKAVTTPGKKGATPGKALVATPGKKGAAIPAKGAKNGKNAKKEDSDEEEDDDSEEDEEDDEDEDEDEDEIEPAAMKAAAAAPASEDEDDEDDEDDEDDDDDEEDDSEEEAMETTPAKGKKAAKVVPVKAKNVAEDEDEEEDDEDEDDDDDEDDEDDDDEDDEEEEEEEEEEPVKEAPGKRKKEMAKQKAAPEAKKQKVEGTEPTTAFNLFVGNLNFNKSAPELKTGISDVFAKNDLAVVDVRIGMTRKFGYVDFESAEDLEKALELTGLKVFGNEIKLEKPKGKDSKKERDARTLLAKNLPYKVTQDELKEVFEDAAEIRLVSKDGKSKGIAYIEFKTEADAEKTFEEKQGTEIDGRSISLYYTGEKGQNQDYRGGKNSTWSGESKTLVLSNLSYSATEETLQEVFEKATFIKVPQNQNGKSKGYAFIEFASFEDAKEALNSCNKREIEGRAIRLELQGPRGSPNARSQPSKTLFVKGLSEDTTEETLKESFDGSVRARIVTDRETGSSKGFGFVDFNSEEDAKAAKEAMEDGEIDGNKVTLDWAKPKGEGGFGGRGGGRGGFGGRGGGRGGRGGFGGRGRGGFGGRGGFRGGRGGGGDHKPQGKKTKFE
UniProt P15941: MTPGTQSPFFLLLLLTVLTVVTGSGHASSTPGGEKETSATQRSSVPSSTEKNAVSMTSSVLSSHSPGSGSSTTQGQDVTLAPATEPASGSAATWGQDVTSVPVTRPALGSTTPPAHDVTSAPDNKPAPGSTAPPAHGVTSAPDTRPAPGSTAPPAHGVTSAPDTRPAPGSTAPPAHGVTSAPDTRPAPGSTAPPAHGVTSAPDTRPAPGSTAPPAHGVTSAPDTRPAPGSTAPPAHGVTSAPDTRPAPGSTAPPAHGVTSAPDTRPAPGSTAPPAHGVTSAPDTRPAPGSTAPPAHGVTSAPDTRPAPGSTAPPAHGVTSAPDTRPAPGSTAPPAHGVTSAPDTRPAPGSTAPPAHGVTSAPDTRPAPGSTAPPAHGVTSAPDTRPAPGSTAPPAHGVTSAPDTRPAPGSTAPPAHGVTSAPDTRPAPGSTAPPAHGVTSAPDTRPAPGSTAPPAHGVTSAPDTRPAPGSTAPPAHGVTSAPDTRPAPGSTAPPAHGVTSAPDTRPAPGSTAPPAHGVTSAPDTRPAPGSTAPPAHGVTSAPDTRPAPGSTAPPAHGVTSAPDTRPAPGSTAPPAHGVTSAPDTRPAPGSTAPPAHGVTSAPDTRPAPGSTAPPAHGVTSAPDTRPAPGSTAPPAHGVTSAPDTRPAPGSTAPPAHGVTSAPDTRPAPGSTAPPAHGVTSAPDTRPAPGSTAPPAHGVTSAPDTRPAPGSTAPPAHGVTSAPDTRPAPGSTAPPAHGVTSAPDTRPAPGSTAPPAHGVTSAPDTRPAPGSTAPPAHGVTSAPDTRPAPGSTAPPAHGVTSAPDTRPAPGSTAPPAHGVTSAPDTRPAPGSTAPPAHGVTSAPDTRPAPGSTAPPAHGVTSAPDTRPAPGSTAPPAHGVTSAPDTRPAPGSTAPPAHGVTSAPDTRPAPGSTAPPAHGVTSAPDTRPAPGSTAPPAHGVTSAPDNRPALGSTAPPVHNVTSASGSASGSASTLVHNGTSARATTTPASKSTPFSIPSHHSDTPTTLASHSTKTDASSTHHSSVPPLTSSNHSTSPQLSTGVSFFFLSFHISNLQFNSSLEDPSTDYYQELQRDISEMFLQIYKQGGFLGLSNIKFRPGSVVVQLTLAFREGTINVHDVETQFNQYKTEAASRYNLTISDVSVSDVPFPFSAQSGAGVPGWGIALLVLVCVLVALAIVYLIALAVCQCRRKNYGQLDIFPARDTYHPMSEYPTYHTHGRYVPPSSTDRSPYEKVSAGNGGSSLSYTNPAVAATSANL

Key:
[1] = molecular target: nucleolin on HeLa cells (human) (UniProt P19338); test: confocal microscopy on HeLa cells; details: stronger uptake than WA-Cu30; protein on the cell surface; label: 3' FAM, copper nanoparticles grown on T30; single-stranded DNA
[2] = molecular target: Mucin 1 (MUC1) on the surface of MUC1+ cells (MCF-7, A549) (human) (UniProt P15941); test: flow cytometry and confocal microscopy on cells; details: living-cell assays (flow cytometry, confocal microscopy), protein on the cell surface, label: copper nanoparticles grown on T30, single-stranded DNA
[3] = molecular target: Mucin 1 (MUC1) on the surface of MUC1+ cells (MCF-7, A549) (human) (UniProt P15941); test: MTT prodrug activation on MCF-7 (indirect); details: complementary strand inhibits aptamer-protein binding; protein on the cell surface; label: copper nanoparticles grown on T30
[4] = molecular target: Mucin 1 (MUC1) on the surface of MUC1+ cells (MCF-7, A549) (human) (UniProt P15941); test: flow cytometry on cells; details: no CuNPs; living-cell assays (flow cytometry, confocal microscopy); protein on the cell surface; single-stranded DNA

## GGTGGTGGTGGTTGTGGTGGTGGTGGCAACATCATCAACACTTTTTTTTTTTTTTTTTTTTTTTTTTTTTT [AApt-Cu30 (AS1411-T30-FAM with CuNPs)]
[1]
  binding result: binds

## TTTTTTTTTTTTTTTTTTTTTTTTTTTTTTCAACATCATCAACAC [WA-Cu30 (WA-T30 with CuNPs, no aptamer)]
[2]; MCF-7 and A549, weak signal, aptamer absent
  binding result: binds more weakly

## TTTTTTTTTTTTTTTTTTTTTTTTTTTTTTCAACATCATCAACACGGCTATAGCACATGGGTAAAACGAC / GTCGTTTTACCCATGTGCTATAGCC [MApt-Cu30-block (MUC1-T30 with complementary strand)]
[3]
  binding result: binds more weakly

## TTTTTTTTTTTTTTTTTTTTTTTTTTTTTTCAACATCATCAACACGGCTATAGCACATGGGTAAAACGAC [MApt (MUC1-T30 without CuNPs)]
[4]
  binding result: binds

## TTTTTTTTTTTTTTTTTTTTTTTTTTTTTTCAACATCATCAACACGGCTATAGCACATGGGTAAAACGAC [MApt-Cu30 (MUC1-T30 with CuNPs)]
[2]; MCF-7 and A549, slight or no shift on MUC1- or normal cells
  binding result: binds
